Measured data: PubChem BioAssay AID1671195 (Yale University, 2021)
The deposit covers about 22,000 reagents; below is an unselected part. In the full data, about 1,510 (6.9%) are marked active. 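Active includes knockdowns raising or lowering LDL uptake; positive z-scores mean more uptake, negative mean less.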 A number with no mark means an inactive call.

- Purpose: 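Regulators of LDL receptor activity judged by labelled LDL uptake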 (primary screen)
- Cell system: human Huh7 hepatoma cells
- Knock-down reagent: siRNA pool against human genes, 18 nM
- Timing: about 2 to 2.5 days of knockdown, then 8 h LDL uptake
- Conditions: DiI-labelled LDL at 30 µg/ml for 8 h, in lipoprotein-deficient serum medium
- Read-out: 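Per-cell DiI-LDL intensity by automated imaging; well means scaled to the plate median and given as a robust z-score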
- Scale: robust z-score: higher = more LDL uptake after knockdown
- Rule for the call: 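a gene counts as active if at least two replicate z-scores exceed ±2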

LOC440851 (retired record)
- robust z-score, replicate 1: -0.135
- robust z-score, replicate 2: -0.529
- robust z-score, replicate 3: -0.418

LOC440007 (retired record)
- robust z-score, replicate 1: -0.121
- robust z-score, replicate 2: -0.374
- robust z-score, replicate 3: -0.473

TPBGL (trophoblast glycoprotein like)
- robust z-score, replicate 1: -0.734
- robust z-score, replicate 2: -0.595
- robust z-score, replicate 3: -0.119

CBLL2 (Cbl proto-oncogene like 2)
- robust z-score, replicate 1: 0.607
- robust z-score, replicate 2: -0.331
- robust z-score, replicate 3: 0.72

IRF2BP1 (interferon regulatory factor 2 binding protein 1)
- robust z-score, replicate 1: 2.19
- robust z-score, replicate 2: 0.96
- robust z-score, replicate 3: 0.202

EPGN (epithelial mitogen)
- robust z-score, replicate 1: 3.93 (active)
- robust z-score, replicate 2: 3.75
- robust z-score, replicate 3: 3.44

MROH9 (maestro heat like repeat family member 9)
- robust z-score, replicate 1: 0.642
- robust z-score, replicate 2: 1.08
- robust z-score, replicate 3: 0.767

DCST1 (DC-STAMP domain containing 1)
- robust z-score, replicate 1: -0.0453
- robust z-score, replicate 2: 0.18
- robust z-score, replicate 3: -0.322

IP6K3 (inositol hexakisphosphate kinase 3)
- robust z-score, replicate 1: 0.267
- robust z-score, replicate 2: -0.0201
- robust z-score, replicate 3: 0.239

OR14A16 (olfactory receptor family 14 subfamily A member 16)
- robust z-score, replicate 1: -0.359
- robust z-score, replicate 2: -0.079
- robust z-score, replicate 3: -0.171

SEC13 (SEC13 homolog, nuclear pore and COPII component)
- robust z-score, replicate 1: 0.642
- robust z-score, replicate 2: 2.21
- robust z-score, replicate 3: -0.245

PEDS1-UBE2V1 (PEDS1-UBE2V1 readthrough)
- robust z-score, replicate 1: 0.456
- robust z-score, replicate 2: -0.417
- robust z-score, replicate 3: -0.597

LOC387717 (retired record)
- robust z-score, replicate 1: -0.682
- robust z-score, replicate 2: -0.527
- robust z-score, replicate 3: -0.585

LOC400861 (retired record)
- robust z-score, replicate 1: 1.36
- robust z-score, replicate 2: 1.2
- robust z-score, replicate 3: 0.934

PTPRO (protein tyrosine phosphatase receptor type O)
- robust z-score, replicate 1: -0.134
- robust z-score, replicate 2: 0.000223
- robust z-score, replicate 3: 0.0147

CCDC184 (coiled-coil domain containing 184)
- robust z-score, replicate 1: 0.911
- robust z-score, replicate 2: 0.777
- robust z-score, replicate 3: 1.3

2 entries from above, reformatted:
| target gene | robust z-score, replicate 1 | robust z-score, replicate 2 | robust z-score, replicate 3 |
| --- | --- | --- | --- |
| PTPRO (protein tyrosine phosphatase receptor type O) | -0.134 | 0.000223 | 0.0147 |
| CCDC184 (coiled-coil domain containing 184) | 0.911 | 0.777 | 1.3 |
